1 substance from paper PMC8674535 can be followed below.

In one assay the target is T1, FLAG-SPRTN wild type (UniProt Q9H040).
T1 sequence: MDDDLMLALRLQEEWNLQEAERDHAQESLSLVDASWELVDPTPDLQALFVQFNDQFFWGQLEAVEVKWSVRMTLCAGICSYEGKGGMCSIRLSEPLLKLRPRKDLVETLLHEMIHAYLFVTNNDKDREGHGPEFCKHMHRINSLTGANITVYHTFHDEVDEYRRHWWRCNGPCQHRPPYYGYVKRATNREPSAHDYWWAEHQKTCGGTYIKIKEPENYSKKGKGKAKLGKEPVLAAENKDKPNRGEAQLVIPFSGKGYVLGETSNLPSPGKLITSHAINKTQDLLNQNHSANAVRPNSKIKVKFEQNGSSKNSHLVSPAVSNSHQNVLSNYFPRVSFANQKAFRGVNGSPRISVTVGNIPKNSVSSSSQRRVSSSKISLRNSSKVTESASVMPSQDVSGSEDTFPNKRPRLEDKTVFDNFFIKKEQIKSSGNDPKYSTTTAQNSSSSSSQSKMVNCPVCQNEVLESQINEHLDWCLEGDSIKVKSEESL
The assay is described as follows: co-IP; FLAG-SPRTN variants overexpressed in HEK293, captured from benzonase-digested total cell extracts on anti-FLAG M2 affinity gel or magnetic beads under native conditions (50 mM Tris-HCl pH 7.4, 150 mM NaCl, 0.5% NP-40), 4 h at 4°C, eluted with 3X FLAG peptide, western blot; cells untreated or treated with 1 mM FA for 1 h. (In western blotting, separated proteins are transferred to a membrane and probed.)

Assay [1] concerns the target T2, FLAG-SPRTN ΔUBZ (Δ452-482aa) (UniProt Q9H040).
T2 sequence: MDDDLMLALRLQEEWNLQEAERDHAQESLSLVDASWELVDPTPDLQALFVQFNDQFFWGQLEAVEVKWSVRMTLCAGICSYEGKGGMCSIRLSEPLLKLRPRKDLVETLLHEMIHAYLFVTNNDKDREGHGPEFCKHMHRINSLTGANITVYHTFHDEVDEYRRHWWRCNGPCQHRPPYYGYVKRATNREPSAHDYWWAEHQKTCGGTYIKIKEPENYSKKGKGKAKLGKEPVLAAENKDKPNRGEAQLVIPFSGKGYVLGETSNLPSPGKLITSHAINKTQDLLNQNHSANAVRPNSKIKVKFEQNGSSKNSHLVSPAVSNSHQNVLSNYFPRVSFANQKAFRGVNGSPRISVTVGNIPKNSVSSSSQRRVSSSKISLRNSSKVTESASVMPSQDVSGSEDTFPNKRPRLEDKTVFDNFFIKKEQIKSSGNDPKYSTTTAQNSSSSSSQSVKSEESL
Described as above.

These are yes or no findings as the source states them, for the method shown. In cells and extracts the contact can be indirect. Some binding calls cover weakened binding; strength is not graded here. Tags and fused reporters may be left off the sequences shown.

For the substance p97 (from UniProt P55072 1-806), the binding entry (with FLAG-SPRTN wild type; in assay [1]) was “binds” in each case.
